# Test results taken from the supplement of paper PMC8728848.
# The other results are listed elsewhere or left out.
# B1: FGF1 (Homo sapiens), P05230 (protein)
# chain: MAEGEITTFTALTEKFNLPPGNYKKPKLLYSNGGHFLRILPDGTVDGTRDRSDQHIQLQLSAESVGEVYIKSTETGQYLAMTDGLLYGSQTPNEECLFLERLEENHYNTYISKHAEKNWFVGLKKNGSCKRGPRTHYGQAILFLPLPASSED
# Assays:
# Test in all cases: glycan array binding signal (z-score within array); higher = stronger binding
# Conditions in all cases: glycan notation: IUPAC condensed, linker removed
# [1] = molecular target: Gal(b1-4)GlcNAc(b1-3)Gal(b1-4)GlcNAc(b1-3)Gal(b1-4)GlcNAc(b1-3)Gal(b1-4)GlcNAc(b1-2)Man(a1-3)[Gal(b1-4)GlcNAc(b1-3)Gal(b1-4)GlcNAc(b1-3)Gal(b1-4)GlcNAc(b1-3)Gal(b1-4)GlcNAc(b1-2)Man(a1-6)]Man(b1-4)GlcNAc(b1-4)GlcNAc
# Outline: (§1)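 Arrays were curated from the Consortium for Functional Glycomics database, 3228 in total, and kept only where the protein sequence was available. Binding is expressed as a within-array Z-score. This score was averaged across arrays of the same protein sequence at different concentrations or buffers and across linkers, and negative values can be read as non-binding.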
# [2] = molecular target: Gal(b1-4)GlcNAc(b1-3)Gal(b1-4)GlcNAc(b1-3)Gal(b1-4)GlcNAc(b1-3)Gal(b1-4)GlcNAc(b1-2)Man(a1-3)[Gal(b1-4)GlcNAc(b1-3)Gal(b1-4)GlcNAc(b1-3)Gal(b1-4)GlcNAc(b1-3)Gal(b1-4)GlcNAc(b1-2)Man(a1-6)]Man(b1-4)GlcNAc(b1-4)[Fuc(a1-6)]GlcNAc
# Outline: as §1
# [3] = molecular target: Gal(b1-4)GlcNAc(b1-3)Gal(b1-4)GlcNAc(b1-3)Gal(b1-4)GlcNAc(b1-3)Gal(b1-4)GlcNAc(b1-2)[Gal(b1-4)GlcNAc(b1-3)Gal(b1-4)GlcNAc(b1-3)Gal(b1-4)GlcNAc(b1-3)Gal(b1-4)GlcNAc(b1-6)]Man(a1-6)[Gal(b1-4)GlcNAc(b1-3)Gal(b1-4)GlcNAc(b1-3)Gal(b1-4)GlcNAc(b1-3)Gal(b1-4)GlcNAc(b1-2)Man(a1-3)]Man(b1-4)GlcNAc(b1-4)[Fuc(a1-6)]GlcNAc
# Outline: as §1
# [4] = molecular target: Gal(b1-4)GlcNAc(b1-3)Gal(b1-4)GlcNAc(b1-3)Gal(b1-4)GlcNAc(b1-3)Gal(b1-4)GlcNAc(b1-3)Gal(b1-4)GlcNAc(b1-2)Man(a1-3)[Gal(b1-4)GlcNAc(b1-3)Gal(b1-4)GlcNAc(b1-3)Gal(b1-4)GlcNAc(b1-3)Gal(b1-4)GlcNAc(b1-3)Gal(b1-4)GlcNAc(b1-2)Man(a1-6)]Man(b1-4)GlcNAc(b1-4)GlcNAc
# Outline: as §1
# [5] = molecular target: Gal(b1-4)GlcNAc(b1-3)Gal(b1-4)GlcNAc(b1-3)Gal(b1-4)GlcNAc(b1-3)Gal(b1-4)GlcNAc(b1-3)Gal(b1-4)GlcNAc(b1-2)Man(a1-3)[Gal(b1-4)GlcNAc(b1-3)Gal(b1-4)GlcNAc(b1-3)Gal(b1-4)GlcNAc(b1-3)Gal(b1-4)GlcNAc(b1-3)Gal(b1-4)GlcNAc(b1-2)Man(a1-6)]Man(b1-4)GlcNAc(b1-4)[Fuc(a1-6)]GlcNAc
# Outline: as §1
# [6] = molecular target: Gal(b1-4)GlcNAc(b1-3)Gal(b1-4)GlcNAc(b1-3)Gal(b1-4)GlcNAc(b1-3)Gal(b1-4)GlcNAc(b1-3)Gal(b1-4)GlcNAc(b1-2)[Gal(b1-4)GlcNAc(b1-3)Gal(b1-4)GlcNAc(b1-3)Gal(b1-4)GlcNAc(b1-3)Gal(b1-4)GlcNAc(b1-3)Gal(b1-4)GlcNAc(b1-6)]Man(a1-6)[Gal(b1-4)GlcNAc(b1-3)Gal(b1-4)GlcNAc(b1-3)Gal(b1-4)GlcNAc(b1-3)Gal(b1-4)GlcNAc(b1-3)Gal(b1-4)GlcNAc(b1-2)Man(a1-3)]Man(b1-4)GlcNAc(b1-4)[Fuc(a1-6)]GlcNAc
# Outline: as §1
# [7] = molecular target: Gal(b1-4)GlcNAc(b1-3)Gal(b1-4)GlcNAc(b1-3)Gal(b1-4)GlcNAc(b1-3)Gal(b1-4)GlcNAc(b1-3)Gal(b1-4)GlcNAc(b1-3)Gal(b1-4)GlcNAc(b1-2)Man(a1-3)[Gal(b1-4)GlcNAc(b1-3)Gal(b1-4)GlcNAc(b1-3)Gal(b1-4)GlcNAc(b1-3)Gal(b1-4)GlcNAc(b1-3)Gal(b1-4)GlcNAc(b1-3)Gal(b1-4)GlcNAc(b1-2)Man(a1-6)]Man(b1-4)GlcNAc(b1-4)GlcNAc
# Outline: as §1
# [8] = molecular target: Gal(b1-4)GlcNAc(b1-3)Gal(b1-4)GlcNAc(b1-3)GalNAc
# Outline: as §1
# [9] = molecular target: Gal(b1-4)GlcNAc(b1-3)Gal(b1-4)GlcNAc(b1-3)[Gal(b1-4)GlcNAc(b1-3)Gal(b1-4)GlcNAc(b1-6)]GalNAc
# Outline: as §1
# [10] = molecular target: Gal(b1-4)GlcNAc(b1-3)Gal(b1-4)GlcNAc(b1-6)[Gal(b1-3)]GalNAc
# Outline: as §1
# [11] = molecular target: Gal(b1-4)GlcNAc(b1-3)Gal(b1-4)[Fuc(a1-3)]GlcNAc(b1-3)Gal(b1-4)[Fuc(a1-3)]GlcNAc
# Outline: as §1
# [12] = molecular target: Gal(b1-4)GlcNAc(b1-3)GalNAc
# Outline: as §1
# [13] = molecular target: Gal(b1-4)GlcNAc(b1-3)[Fuc(a1-3)GlcNAc(b1-6)]Gal(b1-4)Glc
# Outline: as §1
# [14] = molecular target: Gal(b1-4)GlcNAc(b1-3)[Gal(b1-4)GlcNAc(b1-6)]Gal(b1-4)GlcNAc
# Outline: as §1
# [15] = molecular target: Gal(b1-4)GlcNAc(b1-3)[GlcNAc(b1-6)]Gal(b1-4)GlcNAc
# Outline: as §1
# [16] = molecular target: Gal(b1-4)GlcNAc(b1-6)Gal(b1-4)GlcNAc
# Outline: as §1
# [17] = molecular target: Gal(b1-4)GlcNAc(b1-6)GalNAc
# Outline: as §1
# [18] = molecular target: Gal(b1-4)GlcNAc(b1-6)[Gal(b1-3)]GalNAc
# Outline: as §1
# [19] = molecular target: Gal(b1-4)GlcNAc(b1-6)[Gal(b1-4)GlcNAc(b1-3)]GalNAc
# Outline: as §1
# Gal(b1-4)GlcNAc6P = molecular target: Gal(b1-4)GlcNAc6P
# Outline: as §1
# Gal(b1-6)Gal = molecular target: Gal(b1-6)Gal
# Outline: as §1
# Gal3S(b1-3)GalNAc = molecular target: Gal3S(b1-3)GalNAc
# Outline: as §1
# Gal3S(b1-3)GlcNAc = molecular target: Gal3S(b1-3)GlcNAc
# Outline: as §1
binder,measurement,setting,value
B1,glycan array binding signal (z-score),[1],-0.604
same,glycan array binding signal (z-score),[2],1.05
same,glycan array binding signal (z-score),[3],0.166
same,glycan array binding signal (z-score),[4],0.491
same,glycan array binding signal (z-score),[5],-0.647
same,glycan array binding signal (z-score),[6],-0.541
same,glycan array binding signal (z-score),[7],-0.34
same,glycan array binding signal (z-score),[8],1.62
same,glycan array binding signal (z-score),[9],1.64
same,glycan array binding signal (z-score),[10],0.693
same,glycan array binding signal (z-score),[11],-0.238
same,glycan array binding signal (z-score),[12],-0.873
same,glycan array binding signal (z-score),[13],-0.581
same,glycan array binding signal (z-score),[14],-0.917
same,glycan array binding signal (z-score),[15],0.09
same,glycan array binding signal (z-score),[16],-1.19
same,glycan array binding signal (z-score),[17],0.099
same,glycan array binding signal (z-score),[18],-0.192
same,glycan array binding signal (z-score),[19],1.81
same,glycan array binding signal (z-score),Gal(b1-4)GlcNAc6P,-1.05
same,glycan array binding signal (z-score),Gal(b1-6)Gal,0.671
same,glycan array binding signal (z-score),Gal3S(b1-3)GalNAc,0.468
same,glycan array binding signal (z-score),Gal3S(b1-3)GlcNAc,1.54

# Reformatted tab-delimited: entries from further up
binder	measurement	setting	value
B1	glycan array binding signal (z-score)	[7]	-0.34
same	glycan array binding signal (z-score)	[8]	1.62
same	glycan array binding signal (z-score)	[9]	1.64
same	glycan array binding signal (z-score)	[10]	0.693
same	glycan array binding signal (z-score)	[11]	-0.238
same	glycan array binding signal (z-score)	[12]	-0.873
